Reference: PMC6028919, “Scc2 Is a Potent Activator of Cohesin’s ATPase that Promotes Loading by Binding Scc1 without Pds5” (Molecular Cell, 2018)
These are yes or no findings as the source states them, for the method shown. Some entries that bind do so weakly or less than the wild type. For part of these data: Tags and fused reporters may be left off the sequences shown.

By UniProt entry, the sequences of proteins in these tests, tags left out. Where a name states a change or a piece, a line headed by the entry shows the natural chain unless it says otherwise.
UniProt P32908: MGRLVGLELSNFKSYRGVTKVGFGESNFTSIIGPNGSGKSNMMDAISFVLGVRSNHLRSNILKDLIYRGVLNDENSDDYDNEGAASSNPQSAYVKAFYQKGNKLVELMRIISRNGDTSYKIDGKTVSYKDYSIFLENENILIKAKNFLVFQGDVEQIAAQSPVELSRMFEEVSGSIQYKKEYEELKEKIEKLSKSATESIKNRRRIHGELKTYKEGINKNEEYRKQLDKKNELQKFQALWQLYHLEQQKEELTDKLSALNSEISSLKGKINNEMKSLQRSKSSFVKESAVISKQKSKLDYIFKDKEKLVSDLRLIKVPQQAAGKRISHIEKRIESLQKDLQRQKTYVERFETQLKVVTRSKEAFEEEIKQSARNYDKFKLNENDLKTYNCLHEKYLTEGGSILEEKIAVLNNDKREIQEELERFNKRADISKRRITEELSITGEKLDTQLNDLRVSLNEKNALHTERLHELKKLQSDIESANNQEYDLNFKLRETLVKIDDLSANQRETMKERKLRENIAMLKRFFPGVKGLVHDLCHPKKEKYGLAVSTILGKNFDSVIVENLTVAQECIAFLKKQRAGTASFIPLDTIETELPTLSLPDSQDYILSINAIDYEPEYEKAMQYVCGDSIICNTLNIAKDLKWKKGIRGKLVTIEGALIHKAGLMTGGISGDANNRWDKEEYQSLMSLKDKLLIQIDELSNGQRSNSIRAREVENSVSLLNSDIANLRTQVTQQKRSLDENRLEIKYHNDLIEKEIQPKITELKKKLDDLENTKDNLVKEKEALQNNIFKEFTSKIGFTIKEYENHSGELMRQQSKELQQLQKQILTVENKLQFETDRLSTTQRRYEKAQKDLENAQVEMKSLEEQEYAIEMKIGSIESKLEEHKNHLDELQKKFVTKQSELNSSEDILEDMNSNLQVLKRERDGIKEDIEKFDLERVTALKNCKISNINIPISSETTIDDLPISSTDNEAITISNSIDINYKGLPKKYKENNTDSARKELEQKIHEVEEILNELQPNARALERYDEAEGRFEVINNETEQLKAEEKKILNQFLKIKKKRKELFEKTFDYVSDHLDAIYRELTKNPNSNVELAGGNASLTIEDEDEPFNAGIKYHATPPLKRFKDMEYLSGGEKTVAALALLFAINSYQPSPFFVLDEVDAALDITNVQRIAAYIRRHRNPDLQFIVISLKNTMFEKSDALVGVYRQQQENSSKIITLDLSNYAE
UniProt P47037: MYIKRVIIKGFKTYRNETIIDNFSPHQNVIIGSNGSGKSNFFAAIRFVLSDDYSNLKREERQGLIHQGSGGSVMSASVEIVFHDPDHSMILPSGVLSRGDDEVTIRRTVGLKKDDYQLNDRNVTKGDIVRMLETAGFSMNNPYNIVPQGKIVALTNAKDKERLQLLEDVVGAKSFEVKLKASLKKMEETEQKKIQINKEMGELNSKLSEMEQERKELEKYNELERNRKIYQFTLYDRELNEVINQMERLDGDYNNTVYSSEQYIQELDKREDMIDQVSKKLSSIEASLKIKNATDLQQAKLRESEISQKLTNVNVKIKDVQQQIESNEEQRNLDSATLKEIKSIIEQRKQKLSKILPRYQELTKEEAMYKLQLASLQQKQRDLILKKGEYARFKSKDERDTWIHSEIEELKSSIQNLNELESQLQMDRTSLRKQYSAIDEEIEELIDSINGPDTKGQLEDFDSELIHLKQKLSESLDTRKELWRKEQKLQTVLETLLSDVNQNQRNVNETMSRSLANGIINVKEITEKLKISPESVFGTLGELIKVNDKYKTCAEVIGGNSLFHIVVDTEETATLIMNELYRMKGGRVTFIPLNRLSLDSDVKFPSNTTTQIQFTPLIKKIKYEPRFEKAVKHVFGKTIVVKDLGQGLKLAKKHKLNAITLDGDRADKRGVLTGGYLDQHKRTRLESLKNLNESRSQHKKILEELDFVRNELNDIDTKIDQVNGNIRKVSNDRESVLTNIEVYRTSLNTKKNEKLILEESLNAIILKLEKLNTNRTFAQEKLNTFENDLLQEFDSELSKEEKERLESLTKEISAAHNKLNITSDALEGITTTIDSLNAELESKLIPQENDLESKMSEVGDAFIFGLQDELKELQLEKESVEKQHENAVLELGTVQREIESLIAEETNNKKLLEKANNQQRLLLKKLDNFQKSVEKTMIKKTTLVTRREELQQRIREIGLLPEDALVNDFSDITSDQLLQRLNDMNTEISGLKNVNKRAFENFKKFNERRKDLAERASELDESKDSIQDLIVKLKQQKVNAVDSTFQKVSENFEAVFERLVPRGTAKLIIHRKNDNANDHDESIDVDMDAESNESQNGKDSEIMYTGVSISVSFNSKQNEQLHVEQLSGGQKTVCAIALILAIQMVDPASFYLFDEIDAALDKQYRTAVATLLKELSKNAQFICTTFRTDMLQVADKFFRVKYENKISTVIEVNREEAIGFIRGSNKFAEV

T1: Scc1-2xStrepII (S. cerevisiae) (UniProt Q12158)
T1 sequence: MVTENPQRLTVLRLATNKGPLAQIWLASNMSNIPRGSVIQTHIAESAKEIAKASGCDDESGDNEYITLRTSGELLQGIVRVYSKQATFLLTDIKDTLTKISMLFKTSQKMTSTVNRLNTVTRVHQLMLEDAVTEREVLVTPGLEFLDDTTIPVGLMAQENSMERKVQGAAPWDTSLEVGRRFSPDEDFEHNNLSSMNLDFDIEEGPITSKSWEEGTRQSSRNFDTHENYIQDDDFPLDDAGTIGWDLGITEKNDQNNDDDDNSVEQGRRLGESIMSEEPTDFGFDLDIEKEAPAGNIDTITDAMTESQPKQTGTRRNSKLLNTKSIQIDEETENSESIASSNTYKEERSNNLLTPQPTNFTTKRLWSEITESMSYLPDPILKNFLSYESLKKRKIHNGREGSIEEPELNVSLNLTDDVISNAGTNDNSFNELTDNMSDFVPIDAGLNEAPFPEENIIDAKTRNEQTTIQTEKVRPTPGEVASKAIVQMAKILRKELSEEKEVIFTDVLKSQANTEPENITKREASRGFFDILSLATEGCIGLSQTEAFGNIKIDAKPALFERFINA

T2: scc1(Δ152-256)-2xStrepII (S. cerevisiae) (UniProt Q12158)
T2 sequence: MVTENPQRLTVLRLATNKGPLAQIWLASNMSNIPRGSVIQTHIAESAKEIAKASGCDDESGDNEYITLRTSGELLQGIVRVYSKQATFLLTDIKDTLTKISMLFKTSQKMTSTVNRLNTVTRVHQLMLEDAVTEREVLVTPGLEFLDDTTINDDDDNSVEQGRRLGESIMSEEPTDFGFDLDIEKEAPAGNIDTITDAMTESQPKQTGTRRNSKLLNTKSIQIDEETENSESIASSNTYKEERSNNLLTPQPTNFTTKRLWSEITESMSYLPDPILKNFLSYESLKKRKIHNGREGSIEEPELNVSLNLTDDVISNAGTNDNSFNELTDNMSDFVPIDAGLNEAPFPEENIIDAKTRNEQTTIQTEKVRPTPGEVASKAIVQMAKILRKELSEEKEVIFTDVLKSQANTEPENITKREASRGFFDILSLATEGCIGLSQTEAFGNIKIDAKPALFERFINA


What was measured:
[1] = biological target: T1, Scc1-2xStrepII (S. cerevisiae); assay: pull-down; control experiment: purified hexamer captured on streptavidin Dynabeads under the conditions of the GFP-Scc2 co-IP; washes with 150 mM NaCl; Coomassie-stained SDS-PAGE; both purified
[2] = biological target: cohesin tetramer (Smc1, Smc3, Scc1, Scc3) (S. cerevisiae) (UniProt P32908+P47037+Q12158+P40541); assay: co-purification (StrepTrap affinity, then gel filtration); subunits co-expressed in Sf9; captured from the cleared extract by the 2xStrepII tag on Scc1, eluted with 20 mM desthiobiotin, Superose 6 Increase in 25 mM HEPES pH 8.0, 150 mM NaCl, 1 mM TCEP, 10% glycerol; SDS-PAGE
[3] = biological target: T1, Scc1-2xStrepII (S. cerevisiae); assay: as above
[4] = biological target: T2, scc1(Δ152-256)-2xStrepII (S. cerevisiae); assay: as above

Row | binding [1] | binding [2] | binding [3] | binding [4] | Binder
1 | binds | binds | binds | – | Pds5-Flag (protein, UniProt Q04264 1-1277) MAKGAVTKLKFNSPIISTSDQLISTNELLDRLKALHEELASLDQDNTDLTGLDKYRDALVSRKLLKHKDVGIRAFTACCLSDILRLYAPDAPYTDAQLTDIFKLVLSQFEQLGDQENGYHIQQTYLITKLLEYRSIVLLADLPSSNNLLIELFHIFYDPNKSFPARLFNVIGGILGEVISEFDSVPLEVLRLIFNKFLTYNPNEIPEGLNVTSDCGYEVSLILCDTYSNRMSRHLTKYYSEIIHEATNDDNNSRLLTVVVKLHKLVLRLWETVPELINAVIGFIYHELSSENELFRKEATKLIGQILTSYSDLNFVSTHSDTFKAWISKIADISPDVRVEWTESIPQIIATREDISKELNQALAKTFIDSDPRVRRTSVMIFNKVPVTEIWKNITNKAIYTSLLHLAREKHKEVRELCINTMAKFYSNSLNEIERTYQNKEIWEIIDTIPSTLYNLYYINDLNINEQVDSVIFEYLLPFEPDNDKRVHRLLTVLSHFDKKAFTSFFAFNARQIKISFAISKYIDFSKFLNNQESMSSSQGPIVMNKYNQTLQWLASGLSDSTKAIDALETIKQFNDERIFYLLNACVTNDIPFLTFKNCYNELVSKLQTPGLFKKYNISTGASIMPRDIAKVIQILLFRASPIIYNVSNISVLLNLSNNSDAKQLDLKRRILDDISKVNPTLFKDQIRTLKTIIKDLDDPDAEKNDNLSLEEALKTLYKASKTLKDQVDFDDTFFFTKLYDFAVESKPEITKYATKLIALSPKAEETLKKIKIRILPLDLQKDKYFTSHIIVLMEIFKKFPHVLNDDSTDIISYLIKEVLLSNQVVGDSKKEIDWVEDSLLSDTKYSAIGNKVFTLKLFTNKLRSIAPDVPRDELAESFTEKTMKLFFYLIASGGELISEFNKEFYPTPSNYQTKLRCVAGIQVLKLARISNLNNFIKPSDIIKLINLVEDESLPVRKTFLEQLKDYVANELISIKFLPLVFFTAYEPDVELKTTTKIWINFTFGLKSFKKGTIFERALPRLIHAIAHHPDIVGGLDSEGDAYLNALTTAIDYLLFYFDSIAAQENFSLLYYLSERVKNYQDKLVEDEIDEEEGPQKEEAPKKHRPYGQKMYIIGELSQMILLNLKEKKNWQHSAYPGKLNLPSDLFKPFATVQEAQLSFKTYIPESLTEKIQNNIKAKIGRILHTSQTQRQRLQKRLLAHENNESQKKKKKVHHARSQADDEEGDGDRESDSDDDSYSPSNKNETKKGHENIVMKKLRVRKEVDYKDDEDDDIEMT
2 | binds | – | binds | binds | Scc3 (protein, UniProt P40541 1-1150) MTAVRRSTRIRTKSQVIEEDYDDEQNTSAQHVESDKITAKTQHEEEEEQDTGESEESSSEDDYEDQDDDDYVDTATAKRKSRKRKPKSASNTSSKRQKKKPTSAQKSAVSHAPAYHRSKKDQDQYLEIAKDFQPTELFDILSTSEDVSIEELLREWLETYSENRDKFLQEFINLLLNCCGSVARVEDHDVHSNESSNETIGEIQLLFQRQKLHEFYLLISKENKKRKNFKMGPLYQNFAEFMTKLLEVANDLQLLYVESDEDDTQIVTGNLVLDLLTWLSSFSVCKIRCFRYISTLTLYLFQDYLTQQAVNLEKNYLAKLSKQLSLEEKKKRPNNKTLEKLESTIAETQGSKVVIDSIIDNIVKLCFVHRYKDVSDLIRSESMLHLSIWIKNYPEYFLKVTFLKYFGWLLSDNSVSVRLQVTKILPHLIIQNHNSKSTDNSAIRQVFERFKTKILEVAIRDVNLDVRIHSIQVLTEASSLGYLDDSEILIISSLMFDEEFDPFKTSSFNKRSKFLSTVAKFLARVIKEKFDEFIKTHEDLPKEVDGLEVGPVVQVGIFIKILNDSLIYHLKDCAEVDSRTKIRMLTQAAEFLSPYISTHLKTICNLLISDTESNELIQKLQNSANNNSDDEDVDDEELDITPLFPIDRNSTILYLNVFHGLCAGANNPKIQTKDSVKEIVLPLFYDLLNAASIESADILCPLLESFITFSLDDWISIGYETELKKITDKTIKAFMDSTIGNSKVDMKYDIFAKFIHHIHHFEKKELQEKFLNQIATLKIHLKKFLQEKMDPNNSRDDYKDLTCSLYELYINKLTILGRDYPIEVDEELLQLFLNNFVSRIPIMFQDFDDSTAQEINFKMLVLLATWNLEKWREIIEKVRDYENSISKDLRSVWKPIAAIIGRLNTLVISLAATNETFENINSLFYLKWSACTSLMDIIVAIKIFELKLPADATTWRYSMSEQFPFYLHDNASKVLLKIFLYLESLFAKQVDVQLERVADEDANLNDLPETGFFENIETEFLLFTVKLKGLMKLNILDERFASRVALNKEKLGPLFKKIVDDTIMENPEPNKKNIQKAKSNQTQREKAPLQPNSERETDHANTENNDPDIPMTIDLEPIEESSQNNSELAPIEEHPTVVDAIDNSDEITQD
